Assay results as given in article PMC5003816.
These are yes or no findings as the source states them, for the method shown. Binding seen in cells or lysates may run through a third protein. For some assays here: A result given as binding can be weak or reduced; the word gives no strength.

Amino acid sequences for entries named in this document (tags omitted). A change or cut given only in a name is not applied to a line headed by its entry.
UniProt Q9QZM0: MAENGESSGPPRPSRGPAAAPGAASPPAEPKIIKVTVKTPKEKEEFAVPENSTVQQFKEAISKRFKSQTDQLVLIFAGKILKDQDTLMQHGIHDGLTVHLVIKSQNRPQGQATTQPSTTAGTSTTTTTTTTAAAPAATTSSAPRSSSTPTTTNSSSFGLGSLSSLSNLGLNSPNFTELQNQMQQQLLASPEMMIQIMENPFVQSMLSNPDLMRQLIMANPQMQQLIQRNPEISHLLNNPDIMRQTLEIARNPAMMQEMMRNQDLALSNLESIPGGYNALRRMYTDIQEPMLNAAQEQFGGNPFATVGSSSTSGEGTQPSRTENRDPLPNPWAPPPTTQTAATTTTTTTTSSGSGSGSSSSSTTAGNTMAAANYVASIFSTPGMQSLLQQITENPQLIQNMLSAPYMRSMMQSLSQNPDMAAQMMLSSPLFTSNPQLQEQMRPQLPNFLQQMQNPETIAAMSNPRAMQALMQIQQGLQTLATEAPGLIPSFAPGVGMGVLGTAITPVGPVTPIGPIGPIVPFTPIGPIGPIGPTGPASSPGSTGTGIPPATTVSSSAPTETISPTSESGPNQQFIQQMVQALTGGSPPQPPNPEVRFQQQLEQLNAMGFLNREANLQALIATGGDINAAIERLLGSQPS
UniProt P42859: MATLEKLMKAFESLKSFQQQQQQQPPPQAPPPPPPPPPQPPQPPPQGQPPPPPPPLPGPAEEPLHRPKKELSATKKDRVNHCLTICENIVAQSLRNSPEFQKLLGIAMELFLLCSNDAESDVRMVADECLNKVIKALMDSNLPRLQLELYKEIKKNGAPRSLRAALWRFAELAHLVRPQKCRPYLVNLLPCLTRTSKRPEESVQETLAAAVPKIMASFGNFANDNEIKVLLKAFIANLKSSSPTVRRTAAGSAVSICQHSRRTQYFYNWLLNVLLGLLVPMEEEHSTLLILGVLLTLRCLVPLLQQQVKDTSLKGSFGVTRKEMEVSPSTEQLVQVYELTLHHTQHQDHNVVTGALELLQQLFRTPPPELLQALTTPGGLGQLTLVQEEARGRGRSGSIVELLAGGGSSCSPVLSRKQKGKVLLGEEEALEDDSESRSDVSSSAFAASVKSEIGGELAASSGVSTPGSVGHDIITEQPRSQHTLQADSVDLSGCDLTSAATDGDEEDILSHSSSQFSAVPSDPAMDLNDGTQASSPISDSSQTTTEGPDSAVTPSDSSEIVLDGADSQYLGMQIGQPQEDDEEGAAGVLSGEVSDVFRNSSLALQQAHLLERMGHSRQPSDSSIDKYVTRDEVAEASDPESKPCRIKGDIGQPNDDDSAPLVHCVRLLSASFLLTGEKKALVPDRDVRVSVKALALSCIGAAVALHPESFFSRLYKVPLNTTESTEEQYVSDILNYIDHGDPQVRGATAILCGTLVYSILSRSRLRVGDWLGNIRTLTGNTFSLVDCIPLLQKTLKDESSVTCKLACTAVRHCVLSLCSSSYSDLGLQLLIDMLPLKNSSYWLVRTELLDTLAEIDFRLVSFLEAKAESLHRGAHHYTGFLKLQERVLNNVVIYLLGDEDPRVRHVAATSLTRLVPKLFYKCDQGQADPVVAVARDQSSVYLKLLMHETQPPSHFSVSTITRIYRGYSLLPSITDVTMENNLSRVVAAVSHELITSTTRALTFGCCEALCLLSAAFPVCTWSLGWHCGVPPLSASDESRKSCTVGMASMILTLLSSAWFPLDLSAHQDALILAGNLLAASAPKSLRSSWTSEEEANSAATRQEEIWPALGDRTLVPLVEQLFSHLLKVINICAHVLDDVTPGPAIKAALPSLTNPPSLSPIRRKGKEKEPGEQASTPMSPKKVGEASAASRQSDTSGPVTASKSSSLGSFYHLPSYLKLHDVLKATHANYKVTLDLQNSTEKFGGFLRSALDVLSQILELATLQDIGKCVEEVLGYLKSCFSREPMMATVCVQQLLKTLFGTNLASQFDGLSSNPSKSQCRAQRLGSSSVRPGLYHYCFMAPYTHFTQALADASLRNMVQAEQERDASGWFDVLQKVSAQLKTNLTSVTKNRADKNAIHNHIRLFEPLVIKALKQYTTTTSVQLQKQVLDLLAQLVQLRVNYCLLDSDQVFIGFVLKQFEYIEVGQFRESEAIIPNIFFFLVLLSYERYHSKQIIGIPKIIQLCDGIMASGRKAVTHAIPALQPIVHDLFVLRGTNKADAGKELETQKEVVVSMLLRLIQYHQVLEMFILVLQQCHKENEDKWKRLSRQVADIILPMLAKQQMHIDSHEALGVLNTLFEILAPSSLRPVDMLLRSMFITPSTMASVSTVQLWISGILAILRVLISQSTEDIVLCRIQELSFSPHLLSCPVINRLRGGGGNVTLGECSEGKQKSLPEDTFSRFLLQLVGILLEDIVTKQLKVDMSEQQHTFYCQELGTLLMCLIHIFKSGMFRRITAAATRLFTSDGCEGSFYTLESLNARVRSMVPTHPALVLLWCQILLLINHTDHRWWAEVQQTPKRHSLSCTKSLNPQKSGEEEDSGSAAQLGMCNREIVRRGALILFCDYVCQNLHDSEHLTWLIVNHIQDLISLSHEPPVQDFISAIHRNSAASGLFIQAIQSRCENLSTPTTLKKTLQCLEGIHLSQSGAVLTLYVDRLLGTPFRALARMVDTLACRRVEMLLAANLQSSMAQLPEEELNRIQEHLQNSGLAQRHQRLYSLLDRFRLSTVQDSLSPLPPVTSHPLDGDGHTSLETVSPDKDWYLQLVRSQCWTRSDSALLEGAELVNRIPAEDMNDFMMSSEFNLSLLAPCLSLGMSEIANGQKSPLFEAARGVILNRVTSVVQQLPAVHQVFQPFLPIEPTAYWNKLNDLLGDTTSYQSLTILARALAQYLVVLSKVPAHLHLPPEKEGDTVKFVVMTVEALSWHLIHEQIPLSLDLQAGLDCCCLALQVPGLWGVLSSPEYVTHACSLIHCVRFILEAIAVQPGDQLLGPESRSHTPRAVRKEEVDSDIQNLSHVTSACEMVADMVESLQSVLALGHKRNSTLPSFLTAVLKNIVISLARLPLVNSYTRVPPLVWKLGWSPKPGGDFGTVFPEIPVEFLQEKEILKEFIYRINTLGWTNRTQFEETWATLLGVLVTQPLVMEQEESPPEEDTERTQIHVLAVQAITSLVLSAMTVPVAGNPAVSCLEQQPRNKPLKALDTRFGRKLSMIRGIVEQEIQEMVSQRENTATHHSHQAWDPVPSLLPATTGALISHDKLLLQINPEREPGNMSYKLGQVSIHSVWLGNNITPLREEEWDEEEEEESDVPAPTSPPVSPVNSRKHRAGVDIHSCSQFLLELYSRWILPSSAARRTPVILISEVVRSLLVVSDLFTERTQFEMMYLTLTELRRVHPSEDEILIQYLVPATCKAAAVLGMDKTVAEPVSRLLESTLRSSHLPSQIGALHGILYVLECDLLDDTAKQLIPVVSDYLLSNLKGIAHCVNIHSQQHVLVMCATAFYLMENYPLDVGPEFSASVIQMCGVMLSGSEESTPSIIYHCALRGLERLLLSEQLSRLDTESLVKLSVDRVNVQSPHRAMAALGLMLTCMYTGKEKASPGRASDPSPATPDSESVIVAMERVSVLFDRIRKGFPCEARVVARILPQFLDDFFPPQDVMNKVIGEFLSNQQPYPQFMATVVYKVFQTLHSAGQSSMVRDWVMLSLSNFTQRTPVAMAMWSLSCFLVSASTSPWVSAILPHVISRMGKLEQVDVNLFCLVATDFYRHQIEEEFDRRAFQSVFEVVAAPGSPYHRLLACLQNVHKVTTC

Key:
[1] = biological target: UBQLN2 (mouse, endogenous, wild type) (mouse (endogenous in brain and MEFs)) (UniProt Q9QZM0); experiment: condition: only SDS-soluble HTT, before HTT had aggregated; co-IP; reciprocal IP of HTT and UBQLN2 from brains of R6/2 and HdhQ150 mice: SDS-soluble HTT, ages before HTT had aggregated
[2] = biological target: UBQLN2 (mouse, endogenous, wild type) (mouse (endogenous in brain and MEFs)) (UniProt Q9QZM0); experiment: co-IP; reciprocal IP of HTT and UBQLN2 from brains of R6/2 transgenic and HdhQ150 knockin mice once HTT had aggregated; aggregated HTT and HSP70 in the stacking gel

- binding [1]: no binding
- binding [2]: binds
Substance: mutant Huntingtin of the HdhQ150 knockin mouse (from UniProt P42859)
